Here are results for two molecules from article PMC3616908.

No constants are given. Whether binding was seen depends on the method and setting. For some assays here: In cells and extracts the contact can be indirect. Some entries that bind do so weakly or less than the wild type. Tags and fused reporters may be left off the sequences shown.

Test [1] concerns the target T1, Chk1 (fusion of the triple-plasmid based yeast two-hybrid assay) (S. cerevisiae) (UniProt P38147).
T1 sequence: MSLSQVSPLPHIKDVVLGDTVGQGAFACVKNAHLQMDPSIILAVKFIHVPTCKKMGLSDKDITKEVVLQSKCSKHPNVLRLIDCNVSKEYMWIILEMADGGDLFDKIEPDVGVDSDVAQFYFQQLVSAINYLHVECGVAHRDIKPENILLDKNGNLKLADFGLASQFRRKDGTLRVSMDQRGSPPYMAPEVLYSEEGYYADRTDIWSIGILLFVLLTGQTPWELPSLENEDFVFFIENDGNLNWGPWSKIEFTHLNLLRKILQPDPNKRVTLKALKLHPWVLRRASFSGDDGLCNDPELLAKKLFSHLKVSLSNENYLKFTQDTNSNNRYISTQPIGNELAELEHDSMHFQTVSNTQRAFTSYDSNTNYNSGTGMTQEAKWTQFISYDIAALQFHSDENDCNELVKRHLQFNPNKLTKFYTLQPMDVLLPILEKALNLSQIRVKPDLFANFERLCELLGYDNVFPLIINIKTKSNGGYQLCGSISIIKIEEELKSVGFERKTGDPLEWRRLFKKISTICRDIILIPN
The test can be described thus: two-hybrid; triple-plasmid based assay in cdc28-as1 cells synchronised with nocodazole (G2/M, mock treated) or alpha factor (G1, mock or 1-NMPP1) before induction of the bait.

Test [2] has as its target T1, Chk1 (fusion of the triple-plasmid based yeast two-hybrid assay) (S. cerevisiae). The test can be described thus: condition: only with 1-NMPP1 (Cdc28-as1 inhibited) in G2/M arrested cells; two-hybrid; triple-plasmid based assay in cdc28-as1 cells arrested in G2/M with nocodazole and treated with 1-NMPP1 (Cdc28-as1 inhibited) before induction of the bait.
The target of test [3] is T2, Dpb11-13MYC (S. cerevisiae) (UniProt P47027).
T2 sequence: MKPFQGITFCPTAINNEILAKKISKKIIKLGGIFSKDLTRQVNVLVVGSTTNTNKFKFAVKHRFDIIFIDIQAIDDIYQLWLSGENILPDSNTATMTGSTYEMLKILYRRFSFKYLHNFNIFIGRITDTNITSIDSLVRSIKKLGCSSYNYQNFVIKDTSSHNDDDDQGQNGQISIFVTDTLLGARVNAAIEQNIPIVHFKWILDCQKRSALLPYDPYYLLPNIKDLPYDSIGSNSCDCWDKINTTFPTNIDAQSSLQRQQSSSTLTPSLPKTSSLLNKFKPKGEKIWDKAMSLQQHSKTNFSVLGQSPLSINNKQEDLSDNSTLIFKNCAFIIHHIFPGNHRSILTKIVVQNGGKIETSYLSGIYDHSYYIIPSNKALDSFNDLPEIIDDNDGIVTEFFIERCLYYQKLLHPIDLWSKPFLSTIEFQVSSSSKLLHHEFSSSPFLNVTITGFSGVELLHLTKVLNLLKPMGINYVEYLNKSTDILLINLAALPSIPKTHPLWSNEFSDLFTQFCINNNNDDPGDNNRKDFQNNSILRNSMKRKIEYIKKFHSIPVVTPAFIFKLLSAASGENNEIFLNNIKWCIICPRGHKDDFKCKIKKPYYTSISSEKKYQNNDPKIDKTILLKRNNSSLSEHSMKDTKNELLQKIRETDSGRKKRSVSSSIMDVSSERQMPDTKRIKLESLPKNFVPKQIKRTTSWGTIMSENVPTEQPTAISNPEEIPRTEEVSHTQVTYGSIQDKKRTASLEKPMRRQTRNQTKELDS
The test can be described thus: co-IP; anti-MYC (Dpb11-13MYC) IP from clarified crude extract of nocodazole-arrested wild type cells, mock treated (no bleocin); western blot for Rad9. On the technique in general: Immunoblotting shows a protein as a band on a membrane.

For test [4], the target named is T3, Chk1-3FLAG (S. cerevisiae) (UniProt P38147).
T3 sequence: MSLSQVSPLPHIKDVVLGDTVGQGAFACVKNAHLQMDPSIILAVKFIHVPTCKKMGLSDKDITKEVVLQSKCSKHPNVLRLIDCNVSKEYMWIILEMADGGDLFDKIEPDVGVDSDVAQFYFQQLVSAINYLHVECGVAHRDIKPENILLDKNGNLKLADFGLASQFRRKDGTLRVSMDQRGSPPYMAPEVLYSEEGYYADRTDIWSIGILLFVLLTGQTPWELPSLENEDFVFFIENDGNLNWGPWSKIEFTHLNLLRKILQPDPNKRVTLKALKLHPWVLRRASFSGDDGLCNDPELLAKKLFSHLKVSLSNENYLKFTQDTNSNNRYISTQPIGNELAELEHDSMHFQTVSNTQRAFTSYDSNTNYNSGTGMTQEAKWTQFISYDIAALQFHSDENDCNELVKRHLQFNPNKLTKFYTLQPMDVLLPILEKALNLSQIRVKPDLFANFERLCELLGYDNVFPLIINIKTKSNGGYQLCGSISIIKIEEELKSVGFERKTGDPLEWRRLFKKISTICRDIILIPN
As to the kind of experiment: co-IP; anti-FLAG (Chk1-3FLAG) or anti-MYC (Dpb11-13MYC) IP from 1 ml clarified crude extract (10 mg/ml) of nocodazole-arrested wild type or rad9^CDK1-9A cells, mock or 20 ug/ml bleocin for 45 min; IgG mock IP as control; western blot.

Test [5] addresses T2, Dpb11-13MYC (S. cerevisiae). Described as above.

B1: Rad9 (fusion of the triple-plasmid based yeast two-hybrid assay) (protein, UniProt P14737 1-1309)
chain: MSGQLVQWKSSPDRVTQSAIKEALHSPLADGDMNEMNVPVDPLENKVNSTNIIEGSPKANPNPVKFMNTSEIFQKSLGLLDESPRHDDELNIEVGDNDRPNANILHNERTPDLDRIANFFKSNRTPGKENLLTKYQSSDLEDTPLMLRKKMTFQTPTDPLEQKTFKKLKSDTGFCYYGEQNDGEENASLEVTEADATFVQMAERSADNYDCALEGIVTPKRYKDELSKSGGMQDERVQKTQIMISAESPNSISSYDKNKITGNGRTTRNVNKVFNNNEDNIGAIEEKNPVKKKSENYSSDDLRERNNQIIQSNESEEINELEKNLNVSGRENDVNNLDIDINSAVSGTPSRNNAEEEMYSSESVNNREPSKKWIFRYSKDKTENNSNRSTQIVNNPRTQEMPLDSISIDTQPLSKSFNTETNNELETQIIVSSLSQGISAQKGPVFHSTGQTEEIKTQIINSPEQNALNATFETPVTLSRINFEPILEVPETSSPSKNTMSKPSNSSPIPKEKDTFNIHEREVETNNVFSNDIQNSSNAATRDDIIIAGSSDFNEQKEITDRIYLQLSGKQISDSGSDETERMSPNELDTKKESTIMSEVELTQELPEVEEQQDLQTSPKKLVVEEETLMEIKKSKGNSLQLHDDNKECNSDKQDGTESLDVALIEHESKGQSSELQKNLMQLFPSESQEIIQNRRTIKRRQKDTIEIGEEEENRSTKTSPTKHLKRNSDLDAASIKREPSCSITIQTGETGSGKDSKEQSYVFPEGIRTADNSFLSKDDIIFGNAVWCQYTWNYKFYPGILLEVDTNQDGCWIYFETGRSLTKDEDIYYLDIRIGDAVTFDGNEYVVVGLECRSHDLNIIRCIRGYDTVHLKKKNASGLLGKRTLIKALSSISLDLSEWAKRAKIILEDNEKNKGDAYRYLRHPIRGRKSMTNVLSPKKHTDDEKDINTHTEVYNNEIESSSEKKEIVKKDSRDALAEHAGAPSLLFSSGEIRTGNVFDKCIFVLTSLFENREELRQTIESQGGTVIESGFSTLFNFTHPLAKSLVNKGNTDNIRELALKLAWKPHSLFADCRFACLITKRHLRSLKYLETLALGWPTLHWKFISACIEKKRIVPHLIYQYLLPSGESFRLSLDSPSKGGIIKSNNIFSFYTQFLRGSNLRDQICGVKKMLNDYIVIVWGRSELDSFVKFAFACLSAGRMLTIDLPNIDVDDTEPLLNALDSLVPRIGSELSNRKLKFLIYANENNGKSQMKLLERLRSQISLKFKKFNYIFHTESKEWLIQTIINEDTGFHDDITDNDIYNTISEVR
Take B1: the values for the binding result in test [1] and in test [2] were “binds” and “no binding”, respectively.

B2: Rad9 (endogenous) (protein, UniProt P14737 1-1309)
chain: MSGQLVQWKSSPDRVTQSAIKEALHSPLADGDMNEMNVPVDPLENKVNSTNIIEGSPKANPNPVKFMNTSEIFQKSLGLLDESPRHDDELNIEVGDNDRPNANILHNERTPDLDRIANFFKSNRTPGKENLLTKYQSSDLEDTPLMLRKKMTFQTPTDPLEQKTFKKLKSDTGFCYYGEQNDGEENASLEVTEADATFVQMAERSADNYDCALEGIVTPKRYKDELSKSGGMQDERVQKTQIMISAESPNSISSYDKNKITGNGRTTRNVNKVFNNNEDNIGAIEEKNPVKKKSENYSSDDLRERNNQIIQSNESEEINELEKNLNVSGRENDVNNLDIDINSAVSGTPSRNNAEEEMYSSESVNNREPSKKWIFRYSKDKTENNSNRSTQIVNNPRTQEMPLDSISIDTQPLSKSFNTETNNELETQIIVSSLSQGISAQKGPVFHSTGQTEEIKTQIINSPEQNALNATFETPVTLSRINFEPILEVPETSSPSKNTMSKPSNSSPIPKEKDTFNIHEREVETNNVFSNDIQNSSNAATRDDIIIAGSSDFNEQKEITDRIYLQLSGKQISDSGSDETERMSPNELDTKKESTIMSEVELTQELPEVEEQQDLQTSPKKLVVEEETLMEIKKSKGNSLQLHDDNKECNSDKQDGTESLDVALIEHESKGQSSELQKNLMQLFPSESQEIIQNRRTIKRRQKDTIEIGEEEENRSTKTSPTKHLKRNSDLDAASIKREPSCSITIQTGETGSGKDSKEQSYVFPEGIRTADNSFLSKDDIIFGNAVWCQYTWNYKFYPGILLEVDTNQDGCWIYFETGRSLTKDEDIYYLDIRIGDAVTFDGNEYVVVGLECRSHDLNIIRCIRGYDTVHLKKKNASGLLGKRTLIKALSSISLDLSEWAKRAKIILEDNEKNKGDAYRYLRHPIRGRKSMTNVLSPKKHTDDEKDINTHTEVYNNEIESSSEKKEIVKKDSRDALAEHAGAPSLLFSSGEIRTGNVFDKCIFVLTSLFENREELRQTIESQGGTVIESGFSTLFNFTHPLAKSLVNKGNTDNIRELALKLAWKPHSLFADCRFACLITKRHLRSLKYLETLALGWPTLHWKFISACIEKKRIVPHLIYQYLLPSGESFRLSLDSPSKGGIIKSNNIFSFYTQFLRGSNLRDQICGVKKMLNDYIVIVWGRSELDSFVKFAFACLSAGRMLTIDLPNIDVDDTEPLLNALDSLVPRIGSELSNRKLKFLIYANENNGKSQMKLLERLRSQISLKFKKFNYIFHTESKEWLIQTIINEDTGFHDDITDNDIYNTISEVR
On to B2, for which the binding result was “no binding (condition: mock treated cells (no bleocin))” in test [3], “binds” in test [4] and “binds” in test [5].
